Measured values as given in paper PMC5587550.
These are yes or no findings as the source states them, for the method shown. For part of these data: Binding seen in cells or lysates may run through a third protein. Some entries that bind do so weakly or less than the wild type.

The chains behind the UniProt entries cited, without tags or fusion partners.
UniProt Q9Y5X4: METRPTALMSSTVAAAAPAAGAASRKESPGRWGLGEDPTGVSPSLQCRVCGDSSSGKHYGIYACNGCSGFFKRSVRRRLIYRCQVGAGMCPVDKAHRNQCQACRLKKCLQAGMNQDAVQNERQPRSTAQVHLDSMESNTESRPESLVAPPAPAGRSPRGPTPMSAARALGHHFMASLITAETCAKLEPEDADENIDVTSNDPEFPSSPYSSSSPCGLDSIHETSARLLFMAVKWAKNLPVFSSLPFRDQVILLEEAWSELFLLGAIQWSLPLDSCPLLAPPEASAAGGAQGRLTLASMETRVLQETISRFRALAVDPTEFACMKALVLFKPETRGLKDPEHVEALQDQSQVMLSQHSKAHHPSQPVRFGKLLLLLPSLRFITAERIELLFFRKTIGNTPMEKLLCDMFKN
UniProt Q15596: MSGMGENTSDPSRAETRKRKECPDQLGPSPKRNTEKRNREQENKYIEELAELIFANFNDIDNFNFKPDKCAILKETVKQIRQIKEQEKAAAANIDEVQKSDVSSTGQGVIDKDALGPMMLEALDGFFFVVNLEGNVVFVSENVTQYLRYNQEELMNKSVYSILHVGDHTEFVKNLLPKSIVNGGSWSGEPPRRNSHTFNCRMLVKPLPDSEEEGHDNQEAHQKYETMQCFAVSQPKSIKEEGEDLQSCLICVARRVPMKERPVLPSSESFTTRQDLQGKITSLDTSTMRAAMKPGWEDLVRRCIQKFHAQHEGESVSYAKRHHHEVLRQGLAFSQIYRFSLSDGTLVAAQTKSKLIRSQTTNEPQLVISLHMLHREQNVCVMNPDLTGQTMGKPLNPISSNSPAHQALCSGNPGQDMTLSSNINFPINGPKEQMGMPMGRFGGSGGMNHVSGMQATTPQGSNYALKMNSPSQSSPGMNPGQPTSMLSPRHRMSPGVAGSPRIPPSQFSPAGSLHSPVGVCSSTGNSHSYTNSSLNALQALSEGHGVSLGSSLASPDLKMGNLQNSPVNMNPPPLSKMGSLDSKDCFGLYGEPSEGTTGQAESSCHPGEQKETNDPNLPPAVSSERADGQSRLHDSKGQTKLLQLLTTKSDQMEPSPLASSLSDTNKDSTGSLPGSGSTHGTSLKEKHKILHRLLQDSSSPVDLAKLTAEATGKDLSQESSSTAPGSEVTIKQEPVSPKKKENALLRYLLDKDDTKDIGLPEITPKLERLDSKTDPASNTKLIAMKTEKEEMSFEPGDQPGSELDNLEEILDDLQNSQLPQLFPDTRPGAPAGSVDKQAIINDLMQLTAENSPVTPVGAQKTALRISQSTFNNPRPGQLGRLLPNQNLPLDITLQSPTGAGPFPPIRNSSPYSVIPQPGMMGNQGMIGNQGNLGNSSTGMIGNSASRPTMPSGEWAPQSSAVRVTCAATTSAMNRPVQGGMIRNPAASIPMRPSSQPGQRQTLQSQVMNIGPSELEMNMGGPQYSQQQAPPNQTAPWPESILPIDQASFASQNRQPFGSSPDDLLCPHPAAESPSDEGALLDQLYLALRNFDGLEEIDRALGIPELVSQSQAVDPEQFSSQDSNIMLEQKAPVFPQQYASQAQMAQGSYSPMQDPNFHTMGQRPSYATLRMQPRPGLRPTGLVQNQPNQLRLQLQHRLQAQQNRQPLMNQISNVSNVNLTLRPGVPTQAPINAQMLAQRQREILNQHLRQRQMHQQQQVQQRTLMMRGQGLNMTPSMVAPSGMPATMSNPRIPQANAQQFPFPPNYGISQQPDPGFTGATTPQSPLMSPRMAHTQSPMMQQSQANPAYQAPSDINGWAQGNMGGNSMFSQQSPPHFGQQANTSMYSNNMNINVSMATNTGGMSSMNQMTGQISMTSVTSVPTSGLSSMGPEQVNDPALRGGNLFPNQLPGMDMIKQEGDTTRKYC
UniProt P08047: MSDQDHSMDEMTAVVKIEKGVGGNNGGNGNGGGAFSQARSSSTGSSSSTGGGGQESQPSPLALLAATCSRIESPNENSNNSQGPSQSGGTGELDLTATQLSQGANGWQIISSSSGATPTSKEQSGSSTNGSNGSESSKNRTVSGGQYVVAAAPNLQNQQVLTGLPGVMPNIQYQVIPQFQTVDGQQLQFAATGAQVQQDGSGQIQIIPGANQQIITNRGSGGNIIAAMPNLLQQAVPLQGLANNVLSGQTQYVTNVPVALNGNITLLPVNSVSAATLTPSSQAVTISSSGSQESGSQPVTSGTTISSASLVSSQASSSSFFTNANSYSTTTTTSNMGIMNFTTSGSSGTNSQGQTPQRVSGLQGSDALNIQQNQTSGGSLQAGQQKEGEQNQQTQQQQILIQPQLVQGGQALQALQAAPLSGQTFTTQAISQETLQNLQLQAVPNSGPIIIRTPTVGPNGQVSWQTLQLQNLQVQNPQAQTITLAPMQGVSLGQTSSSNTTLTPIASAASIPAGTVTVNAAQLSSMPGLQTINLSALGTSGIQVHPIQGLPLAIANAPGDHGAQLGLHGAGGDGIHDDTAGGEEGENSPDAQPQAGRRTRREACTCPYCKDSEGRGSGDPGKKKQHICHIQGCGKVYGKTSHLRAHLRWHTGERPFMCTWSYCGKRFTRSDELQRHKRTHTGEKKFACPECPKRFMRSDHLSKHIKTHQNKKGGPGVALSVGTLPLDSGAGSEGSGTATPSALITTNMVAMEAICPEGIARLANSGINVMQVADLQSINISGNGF

What was measured:
[1] = target: Nuclear receptor subfamily 2 group E, Member 3 (NR2E3) (human (endogenous in HepG2 and MCF-7)) (UniProt Q9Y5X4); test: Re-ChIP-PCR; MCF-7 cell lysate; sequential chromatin immunoprecipitation, PCR of the AHR promoter
[2] = target: Nuclear receptor subfamily 2 group E, Member 3 (NR2E3) (human (endogenous in HepG2 and MCF-7)) (UniProt Q9Y5X4); test: co-IP; NR2E3 and Sp1; cell line and direction not told in the text (Supplementary Fig. 2a); method taken from the context
[3] = target: Nuclear receptor subfamily 2 group E, Member 3 (NR2E3) (human (endogenous in HepG2 and MCF-7)) (UniProt Q9Y5X4); test: Re-ChIP-PCR; HepG2 cells; formaldehyde-fixed chromatin first immunoprecipitated with anti-NR2E3, then with anti-GRIP1 or anti-Sp1; PCR of the proximal AHR promoter (-283 to -90)
[4] = target: glucocorticoid receptor-interacting protein1 (GRIP1) (human (endogenous in HepG2 and MCF-7)) (UniProt Q15596); test: co-IP; HepG2 cell lysate (~2 mg total protein), 3 ug antibody or control IgG at 4 °C overnight, protein G magnetic beads (Universal Magnetic Co-IP Kit), immunoblot; done in both directions
[5] = target: glucocorticoid receptor-interacting protein1 (GRIP1) (human (endogenous in HepG2 and MCF-7)) (UniProt Q15596); test: co-IP; MCF-7 cell lysate (~2 mg total protein), 3 ug antibody or control IgG at 4 °C overnight, protein G magnetic beads (Universal Magnetic Co-IP Kit), immunoblot
[6] = target: Nuclear receptor subfamily 2 group E, Member 3 (NR2E3) (human (endogenous in HepG2 and MCF-7)) (UniProt Q9Y5X4); test: co-IP; HepG2 cell lysate (~2 mg total protein), 3 ug antibody or control IgG at 4 °C overnight, protein G magnetic beads (Universal Magnetic Co-IP Kit), immunoblot; done in both directions
[7] = target: Nuclear receptor subfamily 2 group E, Member 3 (NR2E3) (human (endogenous in HepG2 and MCF-7)) (UniProt Q9Y5X4); test: co-IP; MCF-7 cell lysate (~2 mg total protein), 3 ug antibody or control IgG at 4 °C overnight, protein G magnetic beads (Universal Magnetic Co-IP Kit), immunoblot

Measured: binding

specificity protein 1 (Sp1) (from UniProt P08047 1-785)
binds: [1] | [2] | [3]

Nuclear receptor subfamily 2 group E, Member 3 (NR2E3) (from UniProt Q9Y5X4 1-410)
binds: [4] | [5]

glucocorticoid receptor-interacting protein1 (GRIP1) (from UniProt Q15596 1-1464)
binds: [6] | [7] | [1] | [3]
